No constants are given. Whether binding was seen depends on the method and setting. Some results given as binding are weak or reduced against the parent protein; the word gives no strength.
B1: Pan1 (protein, UniProt P32521 1-1480)
chain: MYNPYQQQGMGYQQQQQQQQQQPNGFYPQQQQGQSSNQPQGQPQPQQQMAFNQPQATGIGGMPQSFGNSFSSMPQQPQTGYNNNGNNGSVYGNGNFGQQPQQQQQQAKPQHTGYVPNSSMPMMNTTGTMPPPNPAQQPQLQSIQPQGTGYYQAANTANVHSVQPLQSQGTGYYVSTPNLISSNQTQQPLQAQGTGYYQSQPQQVPPPQQAQSLQPLKPQQTGFYLQPQNQAPLEPLKPTATGFVNSFANNGLNNDIKIPAIRLSFITAQDQAKFETLFRSIVTNGSNTVSGANCRKILMRSGLPPSQLARIWTLCDTSKAGELLFPEFALAMHLINDVLQGDTIPYELDSKTKNEVSSFIDAINLSIANQDSSANDAPKTPFDEFITAGVQNLQPQPTGYMPQTSFGIPLQSQITGGGVASALNPQSTGFMAPTTFNMSMNTGTPGLNPQITGGAPASMQPNITGNALQPQTTGMMPQTTGMMPQTTGMMPQTSFGVNLGPQLTGGALQSQYTGGYGSVMPQQSGPASMPNLSFNQQGLQSQLTGLQPQPTGFLPPSNFSATMPLTAQKTGFGNNEIYTKSNFNNNLIDNSSQDKISTEEKSLFYKIFETFDTQNKGLLDSPTAVEIFRKSGLNRADLEQIWNLCDINNTGQLNKQEFALGMHLVYGKLNGKPIPNVLPSSLIPSSTKLLDNLKNQLKTEPTTTKEKPSFGKIDALSYKNNDDDVLPNYRNRRKVYSAKNEEQSSFSSPSAKSVNHSSSTLQTDDISVDKTVEKKTAKPKYAGFSREINLKNIASLENEIKNISNPENCYDSSIPSDLTSRFDAIIAKLPNLFNEISTIDNEITNAKIQLYRKKNPSSIIGSGPNGEITENDRKKAKSRALLRARMSALTGKSTESEDSLSMEDEQQSAEIKRIQQENGKNQEIIKDIRSSISDISASLKSTMTGSNMISNQEFERWEFGIGLEDGVREFLDDLKSNSNKSVTESSPFVPSSTPTPVDDRSSSPSYSQFKTAEERAAYLKEQAKKRMKEKLAKFDKNRRNVTQSSRSISSENSREQPQQIAGSSNLVEPRATPFQEEKYVEVAQPTQPVQSTQPVQPTQPVQPTQPVQPTQPVQPTQPVQPTQPVQNVYNAKQESDDEDEDDEEKRLQEELKRLKLKKKADKEKRLAALRKQIEDAQNESDEEETNGKDNFGGHVNVPQAAPVAPSAAFSQNSTNAPRSVHAAVTPAAGKNSTGLPSTTMGHNPYFKDASASSTSTFDARAAEMQRRIQRGLDEDEDDGWSDEDESNNRVAVDNKVEEAKIGHPDHARAPPVTAAPLPSVTPVPPAVPVPQANTSNEKSSPIPIAPIPPSVTQEPPVPLAPPLPAVDGFQEPPIPSAPAIATAVQKSGSSTPALAGGVLPPPPPLPTQQASTSEPIIAHVDNYNGAEKGTGAYGSDSDDDVLSIPESVGTDEEEEGAQPVSTAGIPSIPPAGIPPPPPLP
B2: Scd5 (protein, UniProt P34758 1-872)
chain: MSFDWLNVPGLDLSSGDQAEKRPSNGLGPPSVSFDFGINTAAPHDSSFWDQGSRSHSDTTLSYRNNHSNTAADNATNVSSPQKDNPPNGEVRTLSGGDVYAESPEDMQVPLSLSQNQLTHEEIRTYLRWYHYICLRTHGKLVRLNDVFRFLTNFNLSQKVKDRIVEIFRSCKNALNIGQFFAVLRLVSRAIIYGILPLRRMILEKAPVPKPRPILSSENHEEVYEEVEDDDSSAKTGDQKVDFDSFASLLLTGKTTRKRVRRRIKNLNFKSKKVRFSEHITFQDPPNLNQESSNNSEARKQDPDAEDEDQDSNNDSPLDFTLPMDQLLKRLYKRRKNSGLVSSLPSEQQETEEEKKVLEDMKDSLSHFKQIQTVDSASLPISSVFLQNGNTLPTSNVNNTTVPQQLPLEPLKPTATGSANHLVREEYNQGLHPSNGAIQTGLQPLKPTATGSANYLMRSHMEQPQSIKPSSTPETVTNSGGLQPLKPTATGSANYLMKQHISPSVNNPVSSMFQAQFTNQSSSPQSTGPAFLNSPNITLPQSNQQQPYQEVNPTQAKIEPSNISPQHTYSNNVRINNGNIVSMPKVEITGAFPPQNTLPQHQQSHLLSPQNTIPQHQRSQLISPQNTFTQNQPILSPQHTYSNNQATMISPQNTYTNNQQQPQHLPPPPPPRAQQQQQGAIVPPQHMYSNVQKQNNLVPTQPSYTNSPSIQSPNFLSPQNAANSYFQSLLSSSPSPNPTPSNASTVNGNNASNGISSFQNTSAAMNNTQSHQTYIQQQQQQQTQQRIYGGQLSQMQQHPGQLHLNNSDIHSQPNKPNYGMLGQQVHQQQQQQQQQFPFTADVNRSNSSDILGNLQSLQQQVDALQIQYNRRP

Tests used:
End3 (S. cerevisiae) = target: T1, End3 (S. cerevisiae) (UniProt P39013); assay: fluorescence cross-correlation spectroscopy (FCCS); living yeast cells, observation volume in the cytoplasm; one protein tagged with (3)myeGFP/eGFP and the other with 3mCherry in the same strain; apparent (effective) KD; interactions up to ~1 μM detectable
T1 sequence: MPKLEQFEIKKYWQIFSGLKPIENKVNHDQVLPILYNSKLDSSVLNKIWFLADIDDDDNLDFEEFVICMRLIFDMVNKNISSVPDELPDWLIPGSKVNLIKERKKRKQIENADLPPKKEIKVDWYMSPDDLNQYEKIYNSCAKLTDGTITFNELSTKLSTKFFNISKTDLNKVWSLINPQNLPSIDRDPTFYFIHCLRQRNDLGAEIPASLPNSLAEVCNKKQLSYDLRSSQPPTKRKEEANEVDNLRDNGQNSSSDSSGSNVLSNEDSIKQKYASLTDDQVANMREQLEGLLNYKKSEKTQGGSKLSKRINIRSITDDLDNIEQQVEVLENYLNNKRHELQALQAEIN

Pan1 = target: T2, Pan1 (S. cerevisiae, UniProt P32521 1-1480); assay: condition: 1000 nM (only Kdeff-values < 1000 nM are shown); fluorescence cross-correlation spectroscopy (FCCS); in the cytoplasm of living yeast cells; first-named protein green (3myeGFP or 1myeGFP; eGFP for Don1), second red (3mCherry); self-interaction in diploid strains with one allele of each colour; apparent or effective KD (Kdeff) from single-cell measurements; only Kdeff values < 1000 nM are shown; values for self-interactions are upper limits
T2 construct: Pan1, S. cerevisiae; also called Pan1-1myeGFP; Pan1-3mCherry; source: chromosomally tagged at the endogenous locus, in the cytoplasm of living S. cerevisiae cells
T2 sequence (looked up): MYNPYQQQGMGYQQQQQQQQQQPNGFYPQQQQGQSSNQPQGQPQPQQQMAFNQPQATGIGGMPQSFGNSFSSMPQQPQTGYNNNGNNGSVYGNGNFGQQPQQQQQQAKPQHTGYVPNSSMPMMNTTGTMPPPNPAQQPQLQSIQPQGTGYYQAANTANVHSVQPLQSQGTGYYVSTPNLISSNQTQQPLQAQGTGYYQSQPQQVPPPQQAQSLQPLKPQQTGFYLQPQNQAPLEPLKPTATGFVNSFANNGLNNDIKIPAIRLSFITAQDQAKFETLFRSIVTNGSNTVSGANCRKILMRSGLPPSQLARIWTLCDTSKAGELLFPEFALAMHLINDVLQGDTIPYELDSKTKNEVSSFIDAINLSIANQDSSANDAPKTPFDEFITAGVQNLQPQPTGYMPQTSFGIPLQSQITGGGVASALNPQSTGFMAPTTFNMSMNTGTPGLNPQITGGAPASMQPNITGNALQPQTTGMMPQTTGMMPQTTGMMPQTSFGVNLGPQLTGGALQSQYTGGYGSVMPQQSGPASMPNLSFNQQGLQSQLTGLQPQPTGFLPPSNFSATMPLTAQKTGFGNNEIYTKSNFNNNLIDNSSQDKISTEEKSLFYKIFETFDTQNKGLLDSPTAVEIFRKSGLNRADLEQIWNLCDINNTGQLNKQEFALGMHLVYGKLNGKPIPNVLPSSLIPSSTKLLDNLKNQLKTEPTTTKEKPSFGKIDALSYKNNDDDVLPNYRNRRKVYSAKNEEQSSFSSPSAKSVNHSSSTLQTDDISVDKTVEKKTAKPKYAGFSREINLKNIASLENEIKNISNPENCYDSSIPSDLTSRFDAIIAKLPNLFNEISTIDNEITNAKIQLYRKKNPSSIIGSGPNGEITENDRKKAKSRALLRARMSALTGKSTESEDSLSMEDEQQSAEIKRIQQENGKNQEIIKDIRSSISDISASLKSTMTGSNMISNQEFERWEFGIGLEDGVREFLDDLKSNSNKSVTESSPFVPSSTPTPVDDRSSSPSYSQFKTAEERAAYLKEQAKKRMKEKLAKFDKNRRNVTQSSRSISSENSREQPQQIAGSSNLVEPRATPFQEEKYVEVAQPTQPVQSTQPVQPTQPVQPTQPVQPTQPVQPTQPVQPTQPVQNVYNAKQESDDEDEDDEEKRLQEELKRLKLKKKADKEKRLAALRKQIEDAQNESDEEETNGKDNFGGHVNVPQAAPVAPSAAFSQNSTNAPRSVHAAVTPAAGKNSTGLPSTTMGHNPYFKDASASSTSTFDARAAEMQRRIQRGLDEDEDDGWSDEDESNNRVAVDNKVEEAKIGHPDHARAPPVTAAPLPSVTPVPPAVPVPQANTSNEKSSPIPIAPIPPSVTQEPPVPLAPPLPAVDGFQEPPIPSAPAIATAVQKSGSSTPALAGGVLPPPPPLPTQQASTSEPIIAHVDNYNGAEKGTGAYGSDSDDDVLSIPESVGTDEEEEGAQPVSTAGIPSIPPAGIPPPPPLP

Scd5 (S. cerevisiae) = target: T3, Scd5 (S. cerevisiae) (UniProt P34758); assay: condition: detection range of FCCS: apparent KD up to ~1 μM; fluorescence cross-correlation spectroscopy (FCCS); living yeast cells, observation volume in the cytoplasm; one protein tagged with (3)myeGFP/eGFP and the other with 3mCherry in the same strain; apparent (effective) KD; interactions up to ~1 μM detectable
T3 sequence: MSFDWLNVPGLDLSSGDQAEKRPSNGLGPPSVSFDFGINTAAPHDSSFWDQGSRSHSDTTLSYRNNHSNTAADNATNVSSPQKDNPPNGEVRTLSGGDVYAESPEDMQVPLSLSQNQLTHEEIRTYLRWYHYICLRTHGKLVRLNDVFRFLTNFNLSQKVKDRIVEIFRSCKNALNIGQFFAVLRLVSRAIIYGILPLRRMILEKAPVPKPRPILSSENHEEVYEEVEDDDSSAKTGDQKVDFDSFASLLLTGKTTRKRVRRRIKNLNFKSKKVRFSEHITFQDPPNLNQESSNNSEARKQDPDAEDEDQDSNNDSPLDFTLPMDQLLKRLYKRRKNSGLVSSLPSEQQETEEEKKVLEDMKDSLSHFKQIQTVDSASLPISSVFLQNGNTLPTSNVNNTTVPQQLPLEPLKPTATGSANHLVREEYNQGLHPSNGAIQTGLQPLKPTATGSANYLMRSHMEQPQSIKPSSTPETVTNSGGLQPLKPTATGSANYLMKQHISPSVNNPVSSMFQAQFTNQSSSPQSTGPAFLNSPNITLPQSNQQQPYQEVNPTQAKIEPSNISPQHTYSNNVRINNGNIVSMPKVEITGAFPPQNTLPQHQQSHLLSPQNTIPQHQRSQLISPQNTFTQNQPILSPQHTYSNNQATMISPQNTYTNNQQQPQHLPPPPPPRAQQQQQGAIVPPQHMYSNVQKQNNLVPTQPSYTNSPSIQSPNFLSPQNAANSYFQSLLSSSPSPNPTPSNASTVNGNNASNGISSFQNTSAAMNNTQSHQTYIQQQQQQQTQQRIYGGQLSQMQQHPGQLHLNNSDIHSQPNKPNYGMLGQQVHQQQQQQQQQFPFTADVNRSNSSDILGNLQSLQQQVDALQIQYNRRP

Binder | binding (End3 (S. cerevisiae)) | binding (Pan1) | binding (Scd5 (S. cerevisiae))
B1 | binds | no binding | no binding
B2 | – | no binding | –

Reference: PMC4299599, “Quantification of cytosolic interactions identifies Ede1 oligomers as key organizers of endocytosis” (Molecular Systems Biology, 2014)
